These are yes or no findings as the source states them, for the method shown. In cells and extracts the contact can be indirect. Some results given as binding are weak or reduced against the parent protein; the word gives no strength.

Protein sequences, listed by entry. Tags and fused reporters are not part of them.
UniProt Q13153: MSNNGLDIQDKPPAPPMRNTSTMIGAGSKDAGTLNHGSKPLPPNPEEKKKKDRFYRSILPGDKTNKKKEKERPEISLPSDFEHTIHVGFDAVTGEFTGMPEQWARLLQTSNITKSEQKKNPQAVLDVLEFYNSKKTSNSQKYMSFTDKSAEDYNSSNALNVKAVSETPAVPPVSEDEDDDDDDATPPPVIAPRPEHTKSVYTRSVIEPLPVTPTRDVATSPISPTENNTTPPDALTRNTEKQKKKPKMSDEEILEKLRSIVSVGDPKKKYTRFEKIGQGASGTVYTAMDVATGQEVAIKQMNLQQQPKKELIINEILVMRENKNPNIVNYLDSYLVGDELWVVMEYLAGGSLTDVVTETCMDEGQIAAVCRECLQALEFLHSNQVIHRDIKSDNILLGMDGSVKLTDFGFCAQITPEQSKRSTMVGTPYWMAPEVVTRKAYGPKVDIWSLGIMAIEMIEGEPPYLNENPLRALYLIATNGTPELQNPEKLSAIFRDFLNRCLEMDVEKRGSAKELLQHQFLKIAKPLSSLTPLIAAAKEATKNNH
UniProt O96013: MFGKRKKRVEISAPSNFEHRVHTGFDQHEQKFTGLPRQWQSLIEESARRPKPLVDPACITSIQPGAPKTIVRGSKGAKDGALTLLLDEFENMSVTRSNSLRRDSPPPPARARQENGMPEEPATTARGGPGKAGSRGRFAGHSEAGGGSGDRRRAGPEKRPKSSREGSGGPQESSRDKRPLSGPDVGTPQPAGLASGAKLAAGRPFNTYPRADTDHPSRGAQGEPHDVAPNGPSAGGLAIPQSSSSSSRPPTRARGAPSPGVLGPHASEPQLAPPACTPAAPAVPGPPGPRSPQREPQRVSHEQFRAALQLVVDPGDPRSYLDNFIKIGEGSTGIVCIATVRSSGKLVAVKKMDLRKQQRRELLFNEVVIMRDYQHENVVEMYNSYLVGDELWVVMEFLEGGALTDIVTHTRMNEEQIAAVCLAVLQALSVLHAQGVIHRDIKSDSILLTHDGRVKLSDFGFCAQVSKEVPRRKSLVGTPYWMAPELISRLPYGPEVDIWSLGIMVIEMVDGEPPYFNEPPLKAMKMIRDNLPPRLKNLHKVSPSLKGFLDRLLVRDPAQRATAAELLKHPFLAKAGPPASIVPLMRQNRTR
UniProt O15085: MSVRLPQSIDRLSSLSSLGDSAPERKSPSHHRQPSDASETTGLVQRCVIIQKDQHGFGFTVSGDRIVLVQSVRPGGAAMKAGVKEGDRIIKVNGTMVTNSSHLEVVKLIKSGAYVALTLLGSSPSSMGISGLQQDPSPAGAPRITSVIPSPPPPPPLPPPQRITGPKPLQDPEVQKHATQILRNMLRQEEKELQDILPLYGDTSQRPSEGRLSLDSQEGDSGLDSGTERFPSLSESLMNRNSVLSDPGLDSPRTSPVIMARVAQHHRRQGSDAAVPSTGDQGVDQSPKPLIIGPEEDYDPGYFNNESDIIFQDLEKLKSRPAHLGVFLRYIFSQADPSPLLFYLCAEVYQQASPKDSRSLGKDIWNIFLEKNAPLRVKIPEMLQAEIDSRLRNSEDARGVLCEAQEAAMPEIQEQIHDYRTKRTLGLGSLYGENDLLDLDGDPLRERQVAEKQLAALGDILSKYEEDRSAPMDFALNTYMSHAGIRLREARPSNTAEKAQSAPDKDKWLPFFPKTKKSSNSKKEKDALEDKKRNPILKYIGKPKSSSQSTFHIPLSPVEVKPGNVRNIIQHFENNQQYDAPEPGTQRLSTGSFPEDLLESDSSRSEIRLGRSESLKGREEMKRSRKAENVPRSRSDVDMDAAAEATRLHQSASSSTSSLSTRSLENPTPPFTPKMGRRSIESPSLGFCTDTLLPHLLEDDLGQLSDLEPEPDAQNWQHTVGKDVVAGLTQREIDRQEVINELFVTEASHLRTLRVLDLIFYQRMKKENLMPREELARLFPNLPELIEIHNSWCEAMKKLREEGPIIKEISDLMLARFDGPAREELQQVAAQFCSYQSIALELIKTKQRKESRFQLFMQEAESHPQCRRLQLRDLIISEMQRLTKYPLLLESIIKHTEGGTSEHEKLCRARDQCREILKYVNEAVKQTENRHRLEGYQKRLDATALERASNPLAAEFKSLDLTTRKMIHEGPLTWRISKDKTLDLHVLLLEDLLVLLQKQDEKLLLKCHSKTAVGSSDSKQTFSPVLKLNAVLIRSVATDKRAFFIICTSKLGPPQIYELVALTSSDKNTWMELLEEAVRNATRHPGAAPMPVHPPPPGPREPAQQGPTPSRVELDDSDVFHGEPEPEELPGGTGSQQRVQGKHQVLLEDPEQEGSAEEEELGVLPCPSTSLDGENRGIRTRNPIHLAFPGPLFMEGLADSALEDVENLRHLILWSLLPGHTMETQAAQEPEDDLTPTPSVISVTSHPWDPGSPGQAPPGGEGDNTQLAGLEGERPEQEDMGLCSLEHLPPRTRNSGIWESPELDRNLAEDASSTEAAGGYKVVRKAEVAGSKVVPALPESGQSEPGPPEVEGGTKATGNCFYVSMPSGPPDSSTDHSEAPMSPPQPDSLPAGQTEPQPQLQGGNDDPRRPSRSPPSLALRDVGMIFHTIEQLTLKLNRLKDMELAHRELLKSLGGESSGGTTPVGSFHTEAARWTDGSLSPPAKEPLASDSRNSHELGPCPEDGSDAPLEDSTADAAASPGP

The values that follow come from PMC5342596.

One assay deals with GFP-PAK1 (human) (UniProt Q13153). Kind of assay: co-IP; GFP-Trap agarose beads (Chromotek) on lysates of HEK293 cells co-expressing GFP-PAK1 or GFP-PAK4 with myc-PDZ-RhoGEF, 48 h after transfection; lysis buffer 10 mM Tris/Cl pH 7.5, 150 mM NaCl, 0.5 mM EDTA, 0.5% NP40; 1 h at 4 °C; precipitate probed for myc-PDZ-RhoGEF.
The next assay has as its target GFP-PAK4 (human) (UniProt O96013). The assay is described as above.

Regarding “myc-PDZ-RhoGEF (from UniProt O15085 1-1522)”, the binding result in the assay with GFP-PAK1 (human) is recorded as “no binding”; with GFP-PAK4 (human) it was “binds”.
